Assay results: patent publication US9926581B2, “Fagopyritol synthase genes and uses thereof” (Cornell Research Foundation, Inc., priority 2002, dated 2018)

Legend:
[1] = system: immature soybean embryos; test: Embryo feeding experiments: cyclitols fed to immature soybean embryos, precocious maturation by slow drying, soluble carbohydrates in axis and cotyledons; type: in vivo, Glycine max (L.) Merrill
[2] = system: soybean explants; test: Soybean explant feeding with 50 mM free cyclitols for one week, soluble carbohydrates in mature seeds; type: in vivo, Glycine max (L.) Merrill cv. Chippewa 64; settings: axis and cotyledon tissue of mature seeds
[3] = system: buckwheat embryos; test: Soluble carbohydrates in buckwheat embryos from seeds matured at 15, 22 or 30° C.; type: in vivo, Fagopyrum esculentum Moench
[4] = system: soybean explants; test: Soybean explant feeding 3 days with 50 mM cyclitol in 1% sucrose, slow drying time course, soluble carbohydrates in axis, cotyledon, seed coat and leaf
[5] = 3 days transport of sucrose (1%) and D-chiro-inositol (50 mM), after 2 days slow drying, Rep 1
[6] = 3 days transport of sucrose (1%) and D-chiro-inositol (50 mM), after 2 days slow drying, Rep 2
[7] = 3 days transport of sucrose (1%) and D-chiro-inositol (50 mM), after 4 days slow drying, Rep 1
[8] = 3 days transport of sucrose (1%) and D-chiro-inositol (50 mM), after 4 days slow drying, Rep 2
[9] = 3 days transport of sucrose (1%) and D-chiro-inositol (50 mM), after 14 days slow drying, Rep 1
[10] = 3 days transport of sucrose (1%) and D-chiro-inositol (50 mM), after 14 days slow drying, Rep 2
[11] = 3 days transport of sucrose (1%) and D-chiro-inositol (50 mM), before slow drying, Rep 1
[12] = 3 days transport of sucrose (1%) and D-chiro-inositol (50 mM), before slow drying, Rep 2
[13] = 3 days transport of sucrose (1%) and D-pinitol (50 mM), after 2 days slow drying, Rep 1
[14] = 3 days transport of sucrose (1%) and D-pinitol (50 mM), after 2 days slow drying, Rep 2
[15] = 3 days transport of sucrose (1%) and D-pinitol (50 mM), after 4 days slow drying, Rep 1
[16] = 3 days transport of sucrose (1%) and D-pinitol (50 mM), after 4 days slow drying, Rep 2
[17] = 3 days transport of sucrose (1%) and D-pinitol (50 mM), after 14 days slow drying, Rep 1

`OC[C@H]1O[C@H](OC[C@H]2O[C@H](O[C@]3(CO)O[C@H](CO)[C@@H](O)[C@@H]3O)[C@H](O)[C@@H](O)[C@@H]2O)[C@H](O)[C@@H](O)[C@H]1O` [Raffinose, raffinose] was tested, and the “change in concentration after feeding myo-inositol” value ([1]; axis and cotyledon tissues, myo-inositol up to 50 mM, after precocious maturation) was “little change”, the “increase in concentration after feeding D-chiro-inositol” value ([1]; axis and cotyledons, concentration series, 14 days precocious maturation) was “did not increase” and the “change in concentration after feeding 50 mM myo-inositol to explants” value [2] was “No significant changes”. For the same compound, the “Minor soluble carbohydrates in buckwheat embryos” value (“Minor soluble carbohydrates” for short) ([3]; maturation temperature 15° C., 16 DAP) was 0 μg/embryo, the “Minor soluble carbohydrates” value ([3]; maturation temperature 15° C., 20 DAP) was 0 μg/embryo and the “Minor soluble carbohydrates” value ([3]; maturation temperature 15° C., 28 DAP) was 0 μg/embryo. For the same compound, the “Minor soluble carbohydrates” value ([3]; maturation temperature 15° C., 28 DAP + 2 wk 12% RH) was 0 μg/embryo, the “Minor soluble carbohydrates” value ([3]; maturation temperature 22° C., 20 DAP) was 0 μg/embryo and the “Minor soluble carbohydrates” value ([3]; maturation temperature 22° C., 28 DAP) was 0.78 ± 0.45 μg/embryo. The “Minor soluble carbohydrates” value ([3]; maturation temperature 30° C., 20 DAP) was 0.70 ± 0.12 μg/embryo, the “Minor soluble carbohydrates” value ([3]; maturation temperature 30° C., 28 DAP) was 1.21 ± 0.95 μg/embryo and the “Accumulation of soluble carbohydrates in soybean axis” value (“Accumulation … in soybean axis” below) [4, 5] was 2.57 μg/axis. For the same compound, the “Accumulation of soluble carbohydrates in soybean cotyledon” value (“Accumulation … in soybean cotyledon” below) [4, 5] was 21.08 μg/cotyledon, the “Accumulation of soluble carbohydrates in soybean seed coat” value (“Accumulation … in soybean seed coat” for short) [4, 5] was 0 μg/seed coat and the “Accumulation … in soybean axis” value [4, 6] was 3.37 μg/axis. The “Accumulation … in soybean cotyledon” value [4, 6] was 15.23 μg/cotyledon, the “Accumulation … in soybean seed coat” value [4, 6] was 0 μg/seed coat and the “Accumulation … in soybean axis” value [4, 7] was 2.61 μg/axis. For the same compound, the “Accumulation … in soybean cotyledon” value [4, 7] was 122.16 μg/cotyledon, the “Accumulation … in soybean seed coat” value [4, 7] was 0.36 μg/seed coat and the “Accumulation … in soybean axis” value [4, 8] was 3.24 μg/axis. The “Accumulation … in soybean cotyledon” value [4, 8] was 124.39 μg/cotyledon, the “Accumulation … in soybean seed coat” value [4, 8] was 0.18 μg/seed coat and the “Accumulation … in soybean axis” value [4, 9] was 6.68 μg/axis. The “Accumulation … in soybean cotyledon” value [4, 9] was 198.46 μg/cotyledon, the “Accumulation … in soybean seed coat” value [4, 9] was 0 μg/seed coat and the “Accumulation … in soybean axis” value [4, 10] was 5.73 μg/axis. The “Accumulation … in soybean cotyledon” value [4, 10] was 211.32 μg/cotyledon, the “Accumulation … in soybean seed coat” value [4, 10] was 10.08 μg/seed coat and the “Accumulation … in soybean axis” value [4, 11] was 0.23 μg/axis. For the same compound, the “Accumulation … in soybean cotyledon” value [4, 11] was 7.28 μg/cotyledon, the “Accumulation … in soybean axis” value [4, 12] was 0 μg/axis and the “Accumulation … in soybean cotyledon” value [4, 12] was 10.73 μg/cotyledon. The “Accumulation … in soybean axis” value [4, 13] was 6.33 μg/axis, the “Accumulation … in soybean cotyledon” value [4, 13] was 10.85 μg/cotyledon and the “Accumulation … in soybean seed coat” value [4, 13] was 0 μg/seed coat. The “Accumulation … in soybean axis” value [4, 14] was 3.86 μg/axis, the “Accumulation … in soybean cotyledon” value [4, 14] was 15.22 μg/cotyledon and the “Accumulation … in soybean seed coat” value [4, 14] was 0 μg/seed coat. For the same compound, the “Accumulation … in soybean axis” value [4, 15] was 7.49 μg/axis, the “Accumulation … in soybean cotyledon” value [4, 15] was 72.18 μg/cotyledon and the “Accumulation … in soybean seed coat” value [4, 15] was 0 μg/seed coat. For the same compound, the “Accumulation … in soybean axis” value [4, 16] was 3.46 μg/axis, the “Accumulation … in soybean cotyledon” value [4, 16] was 187.91 μg/cotyledon and the “Accumulation … in soybean seed coat” value [4, 16] was 0.54 μg/seed coat. The “Accumulation … in soybean axis” value [4, 17] was 7.60 μg/axis, the “Accumulation … in soybean cotyledon” value [4, 17] was 77.60 μg/cotyledon and the “Accumulation … in soybean seed coat” value [4, 17] was 0 μg/seed coat. For the same compound, the “Accumulation … in soybean axis” value ([4]; 3 days transport of sucrose (1%) and D-pinitol (50 mM), after 14 days slow drying, Rep 2) was 11.19 μg/axis.
